From PMC8277905
Where a chain is given by its changes, count along the chain named. Results are given in words; binding and its absence hold for the method and conditions named. In cells and extracts the contact can be indirect. Some results given as binding are weak or reduced against the parent protein; the word gives no strength. For some assays here: Where a sequence is shown, tags or fusion partners need not be part of it. Each block holds one substance with its values, some of them ahead of it.

The chains behind the UniProt entries cited, without tags or fusion partners. Residues count along the entry.
UniProt Q00987: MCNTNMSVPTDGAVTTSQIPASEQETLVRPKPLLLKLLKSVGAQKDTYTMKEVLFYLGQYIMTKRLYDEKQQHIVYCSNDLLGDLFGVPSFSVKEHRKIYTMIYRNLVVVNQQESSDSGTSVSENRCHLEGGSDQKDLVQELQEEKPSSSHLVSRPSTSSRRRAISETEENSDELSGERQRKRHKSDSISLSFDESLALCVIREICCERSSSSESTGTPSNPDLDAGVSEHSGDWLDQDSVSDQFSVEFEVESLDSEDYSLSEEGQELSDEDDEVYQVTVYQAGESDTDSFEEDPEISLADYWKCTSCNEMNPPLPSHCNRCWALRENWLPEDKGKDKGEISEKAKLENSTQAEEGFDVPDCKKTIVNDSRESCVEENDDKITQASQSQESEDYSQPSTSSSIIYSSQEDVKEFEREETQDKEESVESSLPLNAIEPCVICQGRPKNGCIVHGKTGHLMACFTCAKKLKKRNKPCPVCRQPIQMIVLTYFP
UniProt P63165, residues 1-97: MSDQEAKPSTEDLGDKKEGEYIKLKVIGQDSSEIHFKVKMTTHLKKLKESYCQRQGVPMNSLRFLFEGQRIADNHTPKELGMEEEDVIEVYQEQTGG
UniProt Q9Y297: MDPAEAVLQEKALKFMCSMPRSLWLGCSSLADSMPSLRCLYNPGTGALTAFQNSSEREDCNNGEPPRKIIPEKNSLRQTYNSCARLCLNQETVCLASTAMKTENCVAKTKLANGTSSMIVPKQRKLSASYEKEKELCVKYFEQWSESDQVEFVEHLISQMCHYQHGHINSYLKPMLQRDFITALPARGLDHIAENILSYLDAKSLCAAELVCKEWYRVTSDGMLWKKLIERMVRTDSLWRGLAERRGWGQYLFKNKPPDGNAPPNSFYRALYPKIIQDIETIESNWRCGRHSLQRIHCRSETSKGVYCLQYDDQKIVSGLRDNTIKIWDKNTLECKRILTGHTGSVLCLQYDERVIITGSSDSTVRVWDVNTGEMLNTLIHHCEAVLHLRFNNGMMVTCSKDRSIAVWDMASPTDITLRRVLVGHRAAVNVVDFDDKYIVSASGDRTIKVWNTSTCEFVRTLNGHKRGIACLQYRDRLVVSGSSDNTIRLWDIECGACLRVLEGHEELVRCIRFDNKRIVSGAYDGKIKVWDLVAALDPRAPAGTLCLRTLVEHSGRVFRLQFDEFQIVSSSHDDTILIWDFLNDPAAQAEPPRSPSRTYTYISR

What was measured:
[1] = molecular target: T1, Period2 (PER2), endogenous in U2OS cells (human (endogenous in U2OS)) (UniProt O15055); test: co-IP; endogenous proteins in U2OS cells transduced with shCtrl or shSUMO2 lentivirus; TNE lysis buffer (150 mM NaCl, 1% NP-40, MG132, NEM), antibody overnight at 4 °C, protein A/G agarose; normal IgG as IP control
T1 sequence: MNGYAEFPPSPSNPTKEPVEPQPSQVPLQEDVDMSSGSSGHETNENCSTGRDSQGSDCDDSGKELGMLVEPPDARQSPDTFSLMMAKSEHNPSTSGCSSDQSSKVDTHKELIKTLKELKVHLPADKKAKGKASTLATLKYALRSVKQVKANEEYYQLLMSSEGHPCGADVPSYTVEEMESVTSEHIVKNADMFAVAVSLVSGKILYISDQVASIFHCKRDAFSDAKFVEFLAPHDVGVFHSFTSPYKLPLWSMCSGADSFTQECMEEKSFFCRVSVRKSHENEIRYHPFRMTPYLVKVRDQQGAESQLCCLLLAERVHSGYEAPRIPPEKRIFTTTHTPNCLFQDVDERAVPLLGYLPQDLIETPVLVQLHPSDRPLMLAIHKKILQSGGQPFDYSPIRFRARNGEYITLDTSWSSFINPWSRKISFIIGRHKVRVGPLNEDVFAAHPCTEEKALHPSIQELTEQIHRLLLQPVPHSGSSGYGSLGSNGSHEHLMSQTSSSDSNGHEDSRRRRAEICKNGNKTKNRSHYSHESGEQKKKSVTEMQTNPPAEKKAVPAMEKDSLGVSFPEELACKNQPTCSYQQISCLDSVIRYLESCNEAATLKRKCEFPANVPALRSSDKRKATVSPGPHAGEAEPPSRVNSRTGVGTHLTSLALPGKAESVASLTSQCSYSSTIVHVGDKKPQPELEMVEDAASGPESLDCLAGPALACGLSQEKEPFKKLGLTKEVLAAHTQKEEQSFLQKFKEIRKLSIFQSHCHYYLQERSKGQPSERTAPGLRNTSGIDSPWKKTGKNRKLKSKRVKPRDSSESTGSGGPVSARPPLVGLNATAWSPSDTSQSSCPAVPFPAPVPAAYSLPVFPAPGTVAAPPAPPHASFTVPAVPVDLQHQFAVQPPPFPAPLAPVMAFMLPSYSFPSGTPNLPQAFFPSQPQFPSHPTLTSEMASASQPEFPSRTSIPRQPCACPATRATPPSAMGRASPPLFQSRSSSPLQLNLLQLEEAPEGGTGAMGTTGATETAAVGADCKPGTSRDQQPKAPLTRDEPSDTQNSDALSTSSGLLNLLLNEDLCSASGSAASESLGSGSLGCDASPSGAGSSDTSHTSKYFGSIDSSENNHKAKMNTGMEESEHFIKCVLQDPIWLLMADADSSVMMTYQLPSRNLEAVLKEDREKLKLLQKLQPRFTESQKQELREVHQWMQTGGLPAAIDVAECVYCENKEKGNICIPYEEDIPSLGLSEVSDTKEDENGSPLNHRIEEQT

[2] = molecular target: T1, Period2 (PER2), endogenous in U2OS cells (human (endogenous in U2OS)); test: proximity ligation; serum-synchronized U2OS cells (shCtrl, shSUMO1 or shSUMO2) fixed at CT 28; anti-PER2 and anti-SUMO1 antibodies against the endogenous proteins, Duolink PLA
[3] = molecular target: T2, FLAG-PER2^K736R expressed in HEK-293 T cells (human) (UniProt O15055); test: co-IP; HEK-293 T cells transfected with FLAG-PER2^WT or FLAG-PER2^K736R; lysates IP with indicated antibodies, immunoblot; normal IgG as IP control
T2 sequence: T1 sequence with K736R

[4] = molecular target: T3, FLAG-PER2^WT expressed in HEK-293 T cells (human) (UniProt O15055); test: as above
T3 sequence: T1 sequence

binding [1]: binds
Substance: MDM2, endogenous in U2OS cells (from UniProt Q00987 1-491)

binding [2]: binds
Substance: SUMO1, endogenous in U2OS cells (from UniProt P63165 1-97)

binding [3]: binds
binding [4]: binds
Substance: β-TrCP in HEK-293 T cells (from UniProt Q9Y297 1-605)

binding [1]: binds
Substance: β-TrCP, full length isoform (68 kD), endogenous in U2OS cells (from UniProt Q9Y297 1-605)
